This is one part of the list.
compound: CC1Cc2ccccc2N1C(=O)C1CCCN(C1)C(=O)CCl (mixture of isomers) [TRIM25 ligand 11 (diastereomer mixture)]; assay: probe-labelled cysteine peptide fold change vs DMSO (competition) (log2 fold change); higher = less target engagement (more negative = stronger competition); details: 50 µM; THP-1; incubation time: 4 h
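Further: competitive chemoproteomic profiling in live THP-1 cells with an iodoacetamide desthiobiotin (IA-DTB) probe, comparing probe-labelled peptide intensities in compound-treated cells against DMSO-treated controls.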

Chains of the proteins cited; added tags and fusions are not shown. Lines headed by an entry give the natural chain unless they say otherwise; changes in a name come on top.
UniProt Q01432: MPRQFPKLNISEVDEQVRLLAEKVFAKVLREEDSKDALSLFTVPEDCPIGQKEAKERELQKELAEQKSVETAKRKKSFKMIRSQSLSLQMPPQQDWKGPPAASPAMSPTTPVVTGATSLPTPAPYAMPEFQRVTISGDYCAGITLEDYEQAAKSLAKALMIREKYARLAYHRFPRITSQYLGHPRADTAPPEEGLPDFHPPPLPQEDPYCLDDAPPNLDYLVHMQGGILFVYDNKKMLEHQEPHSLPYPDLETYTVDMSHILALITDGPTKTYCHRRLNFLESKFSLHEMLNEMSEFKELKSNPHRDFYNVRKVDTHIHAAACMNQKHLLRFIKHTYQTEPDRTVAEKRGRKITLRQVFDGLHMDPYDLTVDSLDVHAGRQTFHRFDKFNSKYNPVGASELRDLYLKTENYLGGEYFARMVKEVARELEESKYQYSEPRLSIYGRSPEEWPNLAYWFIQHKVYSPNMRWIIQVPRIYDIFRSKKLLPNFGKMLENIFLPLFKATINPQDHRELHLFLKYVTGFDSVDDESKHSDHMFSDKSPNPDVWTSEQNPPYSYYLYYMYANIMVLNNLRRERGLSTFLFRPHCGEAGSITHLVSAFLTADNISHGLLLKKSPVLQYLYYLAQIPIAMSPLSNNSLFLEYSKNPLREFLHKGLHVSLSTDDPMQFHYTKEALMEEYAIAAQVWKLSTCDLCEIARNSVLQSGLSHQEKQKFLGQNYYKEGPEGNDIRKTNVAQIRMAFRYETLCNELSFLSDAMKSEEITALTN
UniProt P23526: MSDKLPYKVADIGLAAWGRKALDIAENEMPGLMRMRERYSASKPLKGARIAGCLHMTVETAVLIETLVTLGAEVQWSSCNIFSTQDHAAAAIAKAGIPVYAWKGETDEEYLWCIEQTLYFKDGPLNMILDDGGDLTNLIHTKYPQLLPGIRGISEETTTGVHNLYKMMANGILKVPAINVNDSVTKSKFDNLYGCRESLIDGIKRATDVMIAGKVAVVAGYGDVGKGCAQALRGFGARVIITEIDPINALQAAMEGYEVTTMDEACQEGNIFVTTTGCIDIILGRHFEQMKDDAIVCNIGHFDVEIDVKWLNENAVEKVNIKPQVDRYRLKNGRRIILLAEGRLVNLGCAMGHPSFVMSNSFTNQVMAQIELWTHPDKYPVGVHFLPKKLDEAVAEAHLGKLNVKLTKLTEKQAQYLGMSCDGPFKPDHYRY
UniProt P00568: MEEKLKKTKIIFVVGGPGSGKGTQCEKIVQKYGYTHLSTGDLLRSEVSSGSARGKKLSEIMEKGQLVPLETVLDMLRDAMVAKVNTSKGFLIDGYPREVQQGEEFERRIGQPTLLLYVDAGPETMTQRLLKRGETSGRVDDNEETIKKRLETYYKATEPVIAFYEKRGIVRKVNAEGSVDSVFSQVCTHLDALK
UniProt O15120: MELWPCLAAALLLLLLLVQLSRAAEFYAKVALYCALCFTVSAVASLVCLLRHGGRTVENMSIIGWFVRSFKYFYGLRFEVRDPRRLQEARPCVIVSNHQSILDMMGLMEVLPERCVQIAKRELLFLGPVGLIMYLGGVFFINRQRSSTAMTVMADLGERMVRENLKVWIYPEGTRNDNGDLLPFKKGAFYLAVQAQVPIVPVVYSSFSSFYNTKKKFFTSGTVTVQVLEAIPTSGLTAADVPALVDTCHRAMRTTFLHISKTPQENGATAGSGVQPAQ
UniProt Q9H1A4, whole entry, looked up: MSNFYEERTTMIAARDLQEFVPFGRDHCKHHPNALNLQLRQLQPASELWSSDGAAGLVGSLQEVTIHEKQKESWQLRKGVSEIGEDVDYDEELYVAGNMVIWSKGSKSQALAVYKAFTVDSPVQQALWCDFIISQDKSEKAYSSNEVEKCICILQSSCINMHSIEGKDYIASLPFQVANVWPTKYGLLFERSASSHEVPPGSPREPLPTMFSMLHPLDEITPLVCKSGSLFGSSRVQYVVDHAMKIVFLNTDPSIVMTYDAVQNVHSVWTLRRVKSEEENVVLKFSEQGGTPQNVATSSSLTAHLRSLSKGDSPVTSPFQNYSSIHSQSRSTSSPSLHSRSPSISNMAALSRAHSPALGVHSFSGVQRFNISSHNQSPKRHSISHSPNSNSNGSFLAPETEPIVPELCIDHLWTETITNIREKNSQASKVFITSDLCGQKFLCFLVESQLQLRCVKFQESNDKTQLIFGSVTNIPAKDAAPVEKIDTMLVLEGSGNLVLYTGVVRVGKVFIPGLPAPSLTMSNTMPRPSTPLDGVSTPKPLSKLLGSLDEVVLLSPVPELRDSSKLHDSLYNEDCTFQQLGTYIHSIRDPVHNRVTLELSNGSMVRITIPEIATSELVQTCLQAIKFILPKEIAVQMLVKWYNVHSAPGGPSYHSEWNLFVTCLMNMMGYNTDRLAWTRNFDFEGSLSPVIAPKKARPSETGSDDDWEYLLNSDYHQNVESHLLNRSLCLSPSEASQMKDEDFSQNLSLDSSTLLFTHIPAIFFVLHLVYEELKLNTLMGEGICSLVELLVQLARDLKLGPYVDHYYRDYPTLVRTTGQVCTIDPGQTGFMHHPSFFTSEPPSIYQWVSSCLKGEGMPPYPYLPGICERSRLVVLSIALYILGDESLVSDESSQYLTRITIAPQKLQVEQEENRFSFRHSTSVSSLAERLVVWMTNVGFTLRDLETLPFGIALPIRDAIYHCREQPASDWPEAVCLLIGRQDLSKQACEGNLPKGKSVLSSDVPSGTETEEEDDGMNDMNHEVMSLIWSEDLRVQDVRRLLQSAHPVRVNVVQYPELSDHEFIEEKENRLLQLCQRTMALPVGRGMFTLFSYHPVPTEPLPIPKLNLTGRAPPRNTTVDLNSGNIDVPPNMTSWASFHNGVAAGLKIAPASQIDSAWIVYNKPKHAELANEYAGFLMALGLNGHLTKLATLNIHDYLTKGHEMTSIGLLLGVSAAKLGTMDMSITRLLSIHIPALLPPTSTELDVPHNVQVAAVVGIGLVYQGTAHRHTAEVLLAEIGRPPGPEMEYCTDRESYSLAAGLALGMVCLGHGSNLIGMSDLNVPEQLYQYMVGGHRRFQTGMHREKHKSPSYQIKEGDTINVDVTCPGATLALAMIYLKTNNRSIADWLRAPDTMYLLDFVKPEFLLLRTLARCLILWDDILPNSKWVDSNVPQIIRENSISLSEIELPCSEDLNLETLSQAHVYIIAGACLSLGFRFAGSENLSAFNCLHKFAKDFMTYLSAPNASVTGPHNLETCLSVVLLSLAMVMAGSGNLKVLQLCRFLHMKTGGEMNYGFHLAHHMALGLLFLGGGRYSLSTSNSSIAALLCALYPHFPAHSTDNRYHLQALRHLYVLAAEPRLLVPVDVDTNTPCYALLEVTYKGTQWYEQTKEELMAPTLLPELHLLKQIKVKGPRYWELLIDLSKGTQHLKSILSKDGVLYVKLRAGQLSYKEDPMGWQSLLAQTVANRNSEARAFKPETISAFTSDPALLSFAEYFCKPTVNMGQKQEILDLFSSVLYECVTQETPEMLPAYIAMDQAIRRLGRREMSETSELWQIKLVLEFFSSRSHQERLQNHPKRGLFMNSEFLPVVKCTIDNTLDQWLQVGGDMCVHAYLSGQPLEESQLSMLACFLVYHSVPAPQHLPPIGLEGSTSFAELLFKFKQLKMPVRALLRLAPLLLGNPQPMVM
UniProt P04075: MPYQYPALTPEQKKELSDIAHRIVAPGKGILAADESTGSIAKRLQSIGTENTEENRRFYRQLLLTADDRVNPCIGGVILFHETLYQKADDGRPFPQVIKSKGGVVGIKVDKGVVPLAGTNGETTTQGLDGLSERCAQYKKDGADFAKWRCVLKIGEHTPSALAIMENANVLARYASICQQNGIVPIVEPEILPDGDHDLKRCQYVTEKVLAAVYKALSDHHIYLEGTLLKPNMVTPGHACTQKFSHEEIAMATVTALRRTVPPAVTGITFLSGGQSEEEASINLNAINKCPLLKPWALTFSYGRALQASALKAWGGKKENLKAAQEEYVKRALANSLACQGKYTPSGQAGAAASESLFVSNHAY
UniProt O43865, whole entry, looked up: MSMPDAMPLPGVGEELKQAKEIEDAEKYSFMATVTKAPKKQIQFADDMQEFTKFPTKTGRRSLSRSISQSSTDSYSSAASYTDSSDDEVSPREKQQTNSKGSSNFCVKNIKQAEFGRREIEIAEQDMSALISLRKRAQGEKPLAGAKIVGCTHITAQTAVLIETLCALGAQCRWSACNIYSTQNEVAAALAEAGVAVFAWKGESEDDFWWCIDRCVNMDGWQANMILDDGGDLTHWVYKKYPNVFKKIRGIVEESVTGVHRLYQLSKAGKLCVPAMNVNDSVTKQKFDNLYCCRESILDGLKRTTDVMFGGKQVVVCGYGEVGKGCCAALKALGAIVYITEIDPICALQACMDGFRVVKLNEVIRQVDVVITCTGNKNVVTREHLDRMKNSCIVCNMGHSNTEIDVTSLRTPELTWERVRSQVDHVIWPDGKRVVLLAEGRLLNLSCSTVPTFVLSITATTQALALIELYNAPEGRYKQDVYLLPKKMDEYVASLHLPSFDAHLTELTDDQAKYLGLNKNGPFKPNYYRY
UniProt P49189: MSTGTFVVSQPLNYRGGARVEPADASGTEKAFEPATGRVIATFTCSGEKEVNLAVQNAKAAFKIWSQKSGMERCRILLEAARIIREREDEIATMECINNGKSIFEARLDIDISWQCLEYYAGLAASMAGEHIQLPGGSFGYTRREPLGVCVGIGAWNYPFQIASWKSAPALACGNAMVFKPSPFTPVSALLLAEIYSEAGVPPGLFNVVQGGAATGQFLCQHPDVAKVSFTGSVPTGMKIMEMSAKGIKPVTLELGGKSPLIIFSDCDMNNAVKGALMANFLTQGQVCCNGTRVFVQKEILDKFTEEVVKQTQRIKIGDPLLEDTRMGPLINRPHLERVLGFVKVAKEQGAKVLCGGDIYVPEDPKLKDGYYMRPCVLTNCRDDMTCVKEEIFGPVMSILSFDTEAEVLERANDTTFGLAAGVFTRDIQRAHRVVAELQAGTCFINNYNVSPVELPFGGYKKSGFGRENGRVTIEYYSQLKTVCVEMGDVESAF
UniProt Q9Y2D5: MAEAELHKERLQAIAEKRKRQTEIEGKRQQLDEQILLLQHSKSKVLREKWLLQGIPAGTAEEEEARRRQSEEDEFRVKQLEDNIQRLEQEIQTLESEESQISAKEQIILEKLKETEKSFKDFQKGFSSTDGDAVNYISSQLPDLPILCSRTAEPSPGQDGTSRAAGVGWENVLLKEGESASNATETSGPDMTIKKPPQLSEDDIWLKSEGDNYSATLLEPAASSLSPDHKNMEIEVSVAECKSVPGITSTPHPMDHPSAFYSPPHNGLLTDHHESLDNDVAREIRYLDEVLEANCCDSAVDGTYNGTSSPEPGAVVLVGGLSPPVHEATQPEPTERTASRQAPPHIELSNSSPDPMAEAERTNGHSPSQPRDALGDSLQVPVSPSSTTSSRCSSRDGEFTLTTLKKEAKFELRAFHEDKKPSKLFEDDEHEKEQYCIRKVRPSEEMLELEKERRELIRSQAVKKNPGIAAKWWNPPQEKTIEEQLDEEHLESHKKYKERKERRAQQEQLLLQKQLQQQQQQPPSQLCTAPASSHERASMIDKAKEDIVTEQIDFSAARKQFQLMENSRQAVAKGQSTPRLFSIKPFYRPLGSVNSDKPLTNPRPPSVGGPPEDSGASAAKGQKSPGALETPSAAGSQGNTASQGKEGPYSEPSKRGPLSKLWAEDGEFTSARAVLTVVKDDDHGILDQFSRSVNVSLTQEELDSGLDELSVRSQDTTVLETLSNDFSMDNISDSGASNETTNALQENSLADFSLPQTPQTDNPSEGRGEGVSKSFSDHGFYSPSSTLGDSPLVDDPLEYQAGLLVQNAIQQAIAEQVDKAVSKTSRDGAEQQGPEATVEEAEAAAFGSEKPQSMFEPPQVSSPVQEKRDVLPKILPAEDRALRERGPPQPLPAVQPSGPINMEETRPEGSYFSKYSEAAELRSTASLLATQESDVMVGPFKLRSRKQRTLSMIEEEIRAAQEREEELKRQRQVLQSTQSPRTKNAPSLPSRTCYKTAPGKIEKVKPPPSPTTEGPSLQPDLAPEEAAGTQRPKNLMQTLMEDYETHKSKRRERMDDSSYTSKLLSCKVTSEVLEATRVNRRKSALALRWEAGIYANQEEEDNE
UniProt Q2TAA5: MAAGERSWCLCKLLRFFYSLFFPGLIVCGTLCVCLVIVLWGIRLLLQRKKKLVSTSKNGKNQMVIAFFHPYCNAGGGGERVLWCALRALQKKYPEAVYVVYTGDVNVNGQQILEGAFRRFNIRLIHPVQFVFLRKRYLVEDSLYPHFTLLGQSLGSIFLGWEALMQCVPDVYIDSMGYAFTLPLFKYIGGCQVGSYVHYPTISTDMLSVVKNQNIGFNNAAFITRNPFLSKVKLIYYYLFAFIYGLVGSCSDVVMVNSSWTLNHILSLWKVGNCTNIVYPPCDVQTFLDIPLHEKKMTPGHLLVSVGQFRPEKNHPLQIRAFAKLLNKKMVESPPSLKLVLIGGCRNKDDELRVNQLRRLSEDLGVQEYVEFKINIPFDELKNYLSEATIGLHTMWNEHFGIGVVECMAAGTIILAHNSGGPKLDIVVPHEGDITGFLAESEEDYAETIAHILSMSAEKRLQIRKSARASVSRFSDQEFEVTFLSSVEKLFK

Row | Target | probe-labelled cysteine peptide fold change
1 | AMPD3_Q01432_691_LSTCDLCEIAR (UniProt Q01432) | 0.0054
2 | AHCY_P23526_421_QAQYLGMSCDGPFKPDHYRY (UniProt P23526) | -0.197
3 | AK1_P00568_187_KVNAEGSVDSVFSQVCTHLDALK (UniProt P00568) | -0.224
4 | AK2_P54819_40_LAENFCVCHLATGDMLR (UniProt P54819) | -0.129
5 | AGL_P35573_486_ELICWGDSVK (UniProt P35573) | 0.0934
6 | AKAP9_Q99996_2877_AVIQCLR (UniProt Q99996) | 0.072
7 | AGPAT2_O15120_92_PCVIVSNHQSILDMMGLMEVLPER (UniProt O15120) | -0.381
8 | ANAPC1_Q9H1A4_437_VFITSDLCGQK (UniProt Q9H1A4) | 0.0684
9 | AMPD3_Q01432_47_DALSLFTVPEDCPIGQK (UniProt Q01432) | -0.277
10 | ANAPC1_Q9H1A4_1074_LLQLCQR (UniProt Q9H1A4) | -0.00236
11 | AHSA1_O95433_56_CEVTEVSK (UniProt O95433) | 0.165
12 | ALDH3A2_P51648_425_HSFDTFSHQRPCLLK (UniProt P51648) | -0.197
13 | AHCY_P23526_195_SKFDNLYGCR (UniProt P23526) | -0.0538
14 | AHCTF1_Q8WYP5_722_WNPDCLMIDGLVSQLGER (UniProt Q8WYP5) | 0.0921
15 | AHCYL2_Q96HN2_454_QVDIVITCTGNK (UniProt Q96HN2) | 0.133
16 | ALDOA_P04075_202_CQYVTEK (UniProt P04075) | 0.0847
17 | ALAD_P13716_162_AGCQVVAPSDMMDGR (UniProt P13716) | -0.0881
18 | AMPD2_Q01433_263_YMALSLQSFCPTTR (UniProt Q01433) | 0.0728
19 | ALDH1B1_P30837_179_HEPVGVCGQIIPWNFPLVMQGWK (UniProt P30837) | -0.0294

Row | Target | probe-labelled cysteine peptide fold change
20 | ALDH18A1_P54886_674_SLRTEYGDLELCIEVVDNVQDAIDHIHK (UniProt P54886) | -0.127
21 | AHCYL1_O43865_392_NSCIVCNMGHSNTEIDVTSLR (UniProt O43865) | -0.0276
22 | ALS2_Q96Q42_1454_SFCTGK (UniProt Q96Q42) | 0.0476
23 | ALCAM_Q13740_270_CLGNGNPPPEEFLFYLPGQPEGIR (UniProt Q13740) | 0.0105
24 | ALDOC_P09972_240_ALSDHHVYLEGTLLKPNMVTPGHACPIK (UniProt P09972) | -0.326
25 | ALDOA_P04075_202_RCQYVTEK (UniProt P04075) | 0.183
26 | ANAPC5_Q9UJX4_670_CQVASAASYDQPK (UniProt Q9UJX4) | 0.0346
27 | AKAP8_O43823_173_NGSFGGQYSECR (UniProt O43823) | -0.16
28 | ALDH16A1_Q8IZ83_39_CLGHYVNGK (UniProt Q8IZ83) | -0.0413
29 | ANK2_Q01484_60_GGIDINTCNQNGLNALHLAAK (UniProt Q01484) | 0.0518
30 | AHCTF1_Q8WYP5_107_RTGLLIGLEETEGSVLCLYDLGISK (UniProt Q8WYP5) | 0.0178
31 | AMFR_Q9UKV5_356+364_KLPCGHLFHNSCLR (UniProt Q9UKV5) | -0.173
32 | ALDH9A1_P49189_376_DGYYMRPCVLTNCR (UniProt P49189) | 0.105
33 | AKAP1_Q92667_147_SIPLECPLSSPK (UniProt Q92667) | -0.202
34 | AKAP2_Q9Y2D5_10_MEIEVSVAECK (UniProt Q9Y2D5) | -0.252
35 | ALDH9A1_P49189_484_TVCVEMGDVESAF (UniProt P49189) | -0.204
36 | ALG11_Q2TAA5_345_LVLIGGCR (UniProt Q2TAA5) | 0.0632
37 | ANAPC11_Q9NYG5_73_WLHAQQVQQHCPMCR (UniProt Q9NYG5) | 0.137

2 entries from above, with tabs.
Row	Target	probe-labelled cysteine peptide fold change
34	AKAP2_Q9Y2D5_10_MEIEVSVAECK (UniProt Q9Y2D5)	-0.252
36	ALG11_Q2TAA5_345_LVLIGGCR (UniProt Q2TAA5)	0.0632
